Among the data in the supplement of paper PMC12595434, “Development of retinoid nuclear receptor pathway antagonists through targeting aldehyde dehydrogenase 1A3” (iScience, 2025) are melting temperature shift values, retold here.

By UniProt entry, the sequences of proteins in these tests, tags left out. Where a name states a change or a piece, a line headed by the entry shows the natural chain unless it says otherwise.
UniProt Q13867: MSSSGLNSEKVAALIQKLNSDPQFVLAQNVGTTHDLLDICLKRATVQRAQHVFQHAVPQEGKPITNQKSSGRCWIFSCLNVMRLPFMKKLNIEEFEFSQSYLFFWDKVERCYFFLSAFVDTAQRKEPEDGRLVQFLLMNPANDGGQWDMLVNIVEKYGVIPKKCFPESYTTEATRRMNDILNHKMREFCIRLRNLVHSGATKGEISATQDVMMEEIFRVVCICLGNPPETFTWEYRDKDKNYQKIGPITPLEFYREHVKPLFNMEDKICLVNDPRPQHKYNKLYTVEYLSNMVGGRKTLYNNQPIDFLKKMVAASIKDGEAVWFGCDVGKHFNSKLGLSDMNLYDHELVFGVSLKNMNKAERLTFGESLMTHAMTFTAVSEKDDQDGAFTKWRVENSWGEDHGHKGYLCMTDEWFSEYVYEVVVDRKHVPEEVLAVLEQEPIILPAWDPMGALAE
UniProt Q13951, whole entry: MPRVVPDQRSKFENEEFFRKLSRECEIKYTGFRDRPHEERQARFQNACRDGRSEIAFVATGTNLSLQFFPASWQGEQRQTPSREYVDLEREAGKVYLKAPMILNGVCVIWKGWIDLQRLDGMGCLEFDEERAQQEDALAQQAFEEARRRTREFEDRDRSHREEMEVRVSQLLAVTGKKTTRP
UniProt Q13303: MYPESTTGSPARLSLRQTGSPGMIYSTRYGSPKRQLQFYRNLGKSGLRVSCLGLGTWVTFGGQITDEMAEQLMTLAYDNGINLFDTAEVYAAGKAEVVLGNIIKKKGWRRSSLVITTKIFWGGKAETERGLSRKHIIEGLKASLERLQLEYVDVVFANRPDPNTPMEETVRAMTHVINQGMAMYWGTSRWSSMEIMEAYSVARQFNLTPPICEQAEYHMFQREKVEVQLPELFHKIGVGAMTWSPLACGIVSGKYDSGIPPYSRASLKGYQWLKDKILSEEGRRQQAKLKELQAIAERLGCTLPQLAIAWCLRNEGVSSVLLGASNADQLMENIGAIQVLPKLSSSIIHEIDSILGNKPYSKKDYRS
UniProt Q13158: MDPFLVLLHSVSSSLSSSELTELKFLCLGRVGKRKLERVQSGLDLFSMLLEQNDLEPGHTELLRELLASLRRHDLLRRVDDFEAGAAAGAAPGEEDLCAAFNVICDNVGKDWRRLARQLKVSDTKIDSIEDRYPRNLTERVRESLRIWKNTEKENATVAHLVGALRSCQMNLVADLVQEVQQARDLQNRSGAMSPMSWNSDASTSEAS
UniProt Q14118: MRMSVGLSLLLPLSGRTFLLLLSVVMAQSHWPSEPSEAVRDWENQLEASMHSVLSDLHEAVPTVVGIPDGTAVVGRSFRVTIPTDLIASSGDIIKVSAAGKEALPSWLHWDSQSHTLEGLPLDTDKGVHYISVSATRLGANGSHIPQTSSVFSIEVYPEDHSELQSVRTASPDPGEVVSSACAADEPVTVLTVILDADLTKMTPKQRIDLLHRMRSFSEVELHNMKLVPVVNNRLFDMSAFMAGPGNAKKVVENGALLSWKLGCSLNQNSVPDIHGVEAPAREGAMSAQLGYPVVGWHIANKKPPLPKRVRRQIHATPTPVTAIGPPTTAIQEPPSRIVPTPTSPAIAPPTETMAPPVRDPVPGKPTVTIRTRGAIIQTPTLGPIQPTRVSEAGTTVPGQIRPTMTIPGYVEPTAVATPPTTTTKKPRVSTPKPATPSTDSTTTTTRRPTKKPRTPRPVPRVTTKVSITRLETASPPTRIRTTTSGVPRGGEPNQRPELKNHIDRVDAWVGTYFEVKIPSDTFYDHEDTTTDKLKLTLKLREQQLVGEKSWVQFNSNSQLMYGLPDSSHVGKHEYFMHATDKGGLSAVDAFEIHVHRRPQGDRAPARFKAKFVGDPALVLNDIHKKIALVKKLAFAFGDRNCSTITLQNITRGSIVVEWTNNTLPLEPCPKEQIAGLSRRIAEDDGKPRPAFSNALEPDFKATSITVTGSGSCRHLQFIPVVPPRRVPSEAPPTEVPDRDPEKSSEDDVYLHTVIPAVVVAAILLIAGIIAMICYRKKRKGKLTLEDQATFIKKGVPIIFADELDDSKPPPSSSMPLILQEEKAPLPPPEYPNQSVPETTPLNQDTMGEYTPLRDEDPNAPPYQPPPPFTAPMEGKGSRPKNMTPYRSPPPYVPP
UniProt Q14141: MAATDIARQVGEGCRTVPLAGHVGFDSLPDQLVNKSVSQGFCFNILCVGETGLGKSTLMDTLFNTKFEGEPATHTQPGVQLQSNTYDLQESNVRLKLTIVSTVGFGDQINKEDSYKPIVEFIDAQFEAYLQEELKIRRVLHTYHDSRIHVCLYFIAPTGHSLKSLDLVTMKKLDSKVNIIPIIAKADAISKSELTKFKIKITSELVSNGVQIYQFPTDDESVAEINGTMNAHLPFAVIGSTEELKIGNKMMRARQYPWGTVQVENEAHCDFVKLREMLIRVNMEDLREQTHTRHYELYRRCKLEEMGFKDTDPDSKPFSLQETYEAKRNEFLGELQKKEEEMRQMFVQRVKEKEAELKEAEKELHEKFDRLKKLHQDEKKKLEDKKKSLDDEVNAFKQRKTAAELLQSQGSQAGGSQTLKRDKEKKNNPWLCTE
UniProt Q13535: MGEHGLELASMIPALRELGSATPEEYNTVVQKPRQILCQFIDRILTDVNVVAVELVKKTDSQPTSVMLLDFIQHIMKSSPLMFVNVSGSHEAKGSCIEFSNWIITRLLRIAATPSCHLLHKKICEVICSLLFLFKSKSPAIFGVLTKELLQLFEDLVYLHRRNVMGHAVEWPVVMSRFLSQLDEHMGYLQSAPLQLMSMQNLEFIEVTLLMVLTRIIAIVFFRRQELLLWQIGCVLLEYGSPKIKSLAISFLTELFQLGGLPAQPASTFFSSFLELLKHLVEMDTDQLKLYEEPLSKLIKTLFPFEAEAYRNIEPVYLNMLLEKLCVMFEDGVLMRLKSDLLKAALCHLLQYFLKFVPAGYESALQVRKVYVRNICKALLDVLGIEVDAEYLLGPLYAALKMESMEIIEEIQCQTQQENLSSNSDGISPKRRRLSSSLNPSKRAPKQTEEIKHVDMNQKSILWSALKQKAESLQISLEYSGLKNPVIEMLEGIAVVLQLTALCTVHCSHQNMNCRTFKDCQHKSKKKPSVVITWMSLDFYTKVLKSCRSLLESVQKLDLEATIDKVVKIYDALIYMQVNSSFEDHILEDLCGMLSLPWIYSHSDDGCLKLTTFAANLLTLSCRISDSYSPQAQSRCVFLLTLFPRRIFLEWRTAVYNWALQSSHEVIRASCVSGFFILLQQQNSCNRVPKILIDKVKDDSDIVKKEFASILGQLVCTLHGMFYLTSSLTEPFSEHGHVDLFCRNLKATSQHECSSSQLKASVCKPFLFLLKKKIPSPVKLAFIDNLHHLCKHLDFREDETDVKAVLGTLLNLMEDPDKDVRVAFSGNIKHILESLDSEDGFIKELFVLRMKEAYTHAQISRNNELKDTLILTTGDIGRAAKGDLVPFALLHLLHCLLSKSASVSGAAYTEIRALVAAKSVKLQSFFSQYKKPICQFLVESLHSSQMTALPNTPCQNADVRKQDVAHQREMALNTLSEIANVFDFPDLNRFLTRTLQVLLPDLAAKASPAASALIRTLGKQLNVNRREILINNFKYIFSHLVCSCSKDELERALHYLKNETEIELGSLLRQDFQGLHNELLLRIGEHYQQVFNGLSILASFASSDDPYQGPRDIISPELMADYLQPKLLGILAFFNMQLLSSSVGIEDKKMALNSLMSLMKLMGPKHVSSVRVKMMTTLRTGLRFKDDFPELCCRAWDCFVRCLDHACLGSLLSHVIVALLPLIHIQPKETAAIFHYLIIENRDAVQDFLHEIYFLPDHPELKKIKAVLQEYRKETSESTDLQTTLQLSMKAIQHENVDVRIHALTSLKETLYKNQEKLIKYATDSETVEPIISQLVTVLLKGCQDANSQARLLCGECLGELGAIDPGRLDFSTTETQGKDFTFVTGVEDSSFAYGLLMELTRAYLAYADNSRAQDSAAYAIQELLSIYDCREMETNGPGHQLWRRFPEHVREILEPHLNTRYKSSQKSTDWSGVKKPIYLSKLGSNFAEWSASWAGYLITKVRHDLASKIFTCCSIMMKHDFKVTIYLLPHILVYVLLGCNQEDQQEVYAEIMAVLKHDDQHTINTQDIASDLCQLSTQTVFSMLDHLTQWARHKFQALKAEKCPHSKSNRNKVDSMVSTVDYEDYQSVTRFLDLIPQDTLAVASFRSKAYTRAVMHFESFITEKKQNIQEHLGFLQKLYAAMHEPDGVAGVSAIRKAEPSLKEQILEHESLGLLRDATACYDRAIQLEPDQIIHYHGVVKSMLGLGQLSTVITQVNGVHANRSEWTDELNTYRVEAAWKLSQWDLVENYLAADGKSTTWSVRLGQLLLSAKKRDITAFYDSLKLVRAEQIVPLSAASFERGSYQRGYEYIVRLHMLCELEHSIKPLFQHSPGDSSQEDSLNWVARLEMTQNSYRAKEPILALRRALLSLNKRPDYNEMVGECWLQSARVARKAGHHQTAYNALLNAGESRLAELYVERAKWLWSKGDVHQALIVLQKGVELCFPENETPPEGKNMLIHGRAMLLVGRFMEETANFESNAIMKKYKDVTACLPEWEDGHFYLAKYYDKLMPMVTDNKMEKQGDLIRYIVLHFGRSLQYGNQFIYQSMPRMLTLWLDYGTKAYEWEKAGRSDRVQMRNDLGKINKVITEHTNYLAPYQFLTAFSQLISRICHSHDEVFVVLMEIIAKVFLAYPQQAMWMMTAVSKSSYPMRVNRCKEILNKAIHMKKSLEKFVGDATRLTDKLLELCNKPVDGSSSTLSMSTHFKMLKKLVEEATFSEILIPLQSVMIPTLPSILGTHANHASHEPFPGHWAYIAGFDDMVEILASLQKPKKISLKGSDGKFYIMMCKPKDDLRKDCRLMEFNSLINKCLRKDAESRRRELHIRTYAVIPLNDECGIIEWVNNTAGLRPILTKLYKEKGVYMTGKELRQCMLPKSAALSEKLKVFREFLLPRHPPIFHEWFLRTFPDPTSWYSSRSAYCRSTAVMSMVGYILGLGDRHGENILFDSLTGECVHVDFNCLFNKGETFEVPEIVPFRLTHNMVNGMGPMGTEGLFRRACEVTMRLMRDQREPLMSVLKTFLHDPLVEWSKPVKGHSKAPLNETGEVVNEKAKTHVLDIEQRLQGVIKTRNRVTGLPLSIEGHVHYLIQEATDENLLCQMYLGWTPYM
UniProt Q13625: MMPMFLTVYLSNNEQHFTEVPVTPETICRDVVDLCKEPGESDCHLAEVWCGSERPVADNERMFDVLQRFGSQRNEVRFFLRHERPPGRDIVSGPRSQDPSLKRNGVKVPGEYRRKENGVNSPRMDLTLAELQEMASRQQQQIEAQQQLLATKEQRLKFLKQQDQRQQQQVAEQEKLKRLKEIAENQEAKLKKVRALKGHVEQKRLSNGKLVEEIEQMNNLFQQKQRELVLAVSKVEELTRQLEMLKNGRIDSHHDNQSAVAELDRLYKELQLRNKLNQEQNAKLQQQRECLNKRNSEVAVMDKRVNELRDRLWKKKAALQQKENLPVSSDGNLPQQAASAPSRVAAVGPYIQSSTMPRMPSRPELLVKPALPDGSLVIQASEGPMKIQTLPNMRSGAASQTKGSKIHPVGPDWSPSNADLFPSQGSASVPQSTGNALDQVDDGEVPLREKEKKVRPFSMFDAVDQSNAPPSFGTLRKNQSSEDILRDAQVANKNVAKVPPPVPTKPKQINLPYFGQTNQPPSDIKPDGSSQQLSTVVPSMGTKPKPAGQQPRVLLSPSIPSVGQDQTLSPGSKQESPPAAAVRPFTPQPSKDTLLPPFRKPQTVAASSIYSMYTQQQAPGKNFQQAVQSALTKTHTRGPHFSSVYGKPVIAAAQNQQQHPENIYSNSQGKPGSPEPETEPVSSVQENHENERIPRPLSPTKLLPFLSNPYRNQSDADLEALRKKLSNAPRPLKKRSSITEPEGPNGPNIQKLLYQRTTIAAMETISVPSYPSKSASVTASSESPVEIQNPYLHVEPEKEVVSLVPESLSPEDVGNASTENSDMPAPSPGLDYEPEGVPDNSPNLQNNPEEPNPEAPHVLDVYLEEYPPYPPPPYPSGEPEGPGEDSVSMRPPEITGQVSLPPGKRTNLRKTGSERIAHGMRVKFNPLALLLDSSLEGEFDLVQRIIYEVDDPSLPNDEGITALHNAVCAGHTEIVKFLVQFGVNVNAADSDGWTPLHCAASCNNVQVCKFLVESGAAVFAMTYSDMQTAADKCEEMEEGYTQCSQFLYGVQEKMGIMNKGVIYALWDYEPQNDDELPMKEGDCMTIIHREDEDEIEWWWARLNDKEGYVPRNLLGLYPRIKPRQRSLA
UniProt Q14696: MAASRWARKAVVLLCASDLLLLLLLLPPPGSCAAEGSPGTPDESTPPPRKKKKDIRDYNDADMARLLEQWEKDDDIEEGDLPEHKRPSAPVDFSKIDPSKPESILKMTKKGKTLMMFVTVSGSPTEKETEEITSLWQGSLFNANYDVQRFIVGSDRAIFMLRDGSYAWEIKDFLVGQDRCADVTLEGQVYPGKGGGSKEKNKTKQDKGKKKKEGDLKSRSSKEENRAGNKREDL

Compound in the experiment: CCc1cnccc1C(=O)Nc1cc2c(cc1F)NC(=O)CC2
Kind of experiment: melting temperature shift (DMSO Tm minus MBE1-treated Tm) in cellular thermal proteome profiling; higher = less thermal stabilization by MBE1 (negative = stabilized by MBE1). The following applies: A375.

The other results are listed elsewhere or left out. This is a noisy data set.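 Many melting curves are irregular; where none melted, Tm was taken as 64 °C.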

In the case of UniProt Q15013, the melting temperature shift (MBE1 concentration: 1 uM) amounted to 1.61 °C. On the same count and under the same terms, then BLMH (UniProt Q13867), with -1.38 °C. In the case of SMAD4 (UniProt Q13485), the melting temperature shift reads like this: (MBE1 concentration: 100 nM) -0.472 °C; (MBE1 concentration: 1 uM) 0.104 °C. In the same order, the values of GOLGA4 (UniProt Q13439) are -1.09 °C and -0.772 °C.

Regarding CBFB (UniProt Q13951), the melting temperature shift (MBE1 concentration: 100 nM) was 0.287 °C and the melting temperature shift (MBE1 concentration: 1 uM) is -0.452 °C. In the same order, the values of KCNAB2 (UniProt Q13303) are -8.7 °C and -3.08 °C.

With UniProt Q13207, the melting temperature shift (MBE1 concentration: 100 nM) was -0.426 °C and the melting temperature shift (MBE1 concentration: 1 uM) is -0.367 °C. As for TTLL12 (UniProt Q14166), the melting temperature shift was -0.404 °C (MBE1 concentration: 100 nM) and -0.384 °C (MBE1 concentration: 1 uM). In the same order, the values of FADD (UniProt Q13158) are -0.452 °C and 0.282 °C. For ILK (UniProt Q13418), in that order: 1.15 °C and 0.696 °C. Take DAG1 (UniProt Q14118): under “MBE1 concentration: 1 uM”, the melting temperature shift is -3.33 °C. Take PDCD11 (UniProt Q14690): the melting temperature shift was -0.314 °C (MBE1 concentration: 100 nM) and -0.218 °C (MBE1 concentration: 1 uM). For UniProt Q14141, in that order: 0.998 °C and 1.2 °C. On to HLTF (UniProt Q14527), for which the melting temperature shift was 0.208 °C (MBE1 concentration: 100 nM) and -0.507 °C (MBE1 concentration: 1 uM). Turning to GRB10 (UniProt Q13322), the melting temperature shift (MBE1 concentration: 100 nM) was -0.115 °C. With ATR (UniProt Q13535), the melting temperature shift reads like this: (MBE1 concentration: 100 nM) 0.403 °C; (MBE1 concentration: 1 uM) -0.238 °C. Take RIPK1 (UniProt Q13546): the melting temperature shift (MBE1 concentration: 100 nM) is -0.39 °C and the melting temperature shift (MBE1 concentration: 1 uM) is -0.32 °C. Consider RASA3 (UniProt Q14644), for which the melting temperature shift is -1.21 °C (MBE1 concentration: 100 nM) and -0.359 °C (MBE1 concentration: 1 uM). As to UniProt Q149N8, where the note is “MBE1 concentration: 1 uM”, the melting temperature shift turned out to be 2.38 °C. As for DOCK1 (UniProt Q14185), the melting temperature shift worked out at 0.678 °C (MBE1 concentration: 100 nM) and 0.0611 °C (MBE1 concentration: 1 uM).

In the case of TP53BP2 (UniProt Q13625), the melting temperature shift (MBE1 concentration: 1 uM) turned out to be 4.8 °C.

In the case of UniProt Q13114, for the setting “MBE1 concentration: 1 uM”, the melting temperature shift was -1.31 °C. For UniProt Q13454, the melting temperature shift was -0.577 °C (MBE1 concentration: 100 nM) and -0.429 °C (MBE1 concentration: 1 uM). Take AUH (UniProt Q13825): where the note is “MBE1 concentration: 1 uM”, the melting temperature shift amounted to 0.434 °C. As for CHAF1B (UniProt Q13112), the melting temperature shift by setting is: (MBE1 concentration: 100 nM) -1.32 °C; (MBE1 concentration: 1 uM) -0.794 °C. On to UniProt Q14168, for which the melting temperature shift (MBE1 concentration: 100 nM) was -1.3 °C. For the target TRIM28 (UniProt Q13263), the melting temperature shift was 0.11 °C (MBE1 concentration: 100 nM) and -0.659 °C (MBE1 concentration: 1 uM). For MESDC2 (UniProt Q14696), in that order: -0.756 °C and 0.733 °C.
